# Experimental data as given in patent publication US20090075309A1, “Bisdeoxycoelenterazine derivatives, methods of use, and BRET2 systems” (priority 2007, published 2009).
# Test system: Renilla luciferase (Rluc) mutants
structure (smiles),measurement,value
"O=c1c(Cc2ccccc2)nc2c(Cc3ccccc3)[nH]c(-c3ccccc3)cn1-2 [Clz400, coelenterazine-400a]",emission peak with the Rluc mutants,around 400±5 nm
